Binding data for 2 substances are collected here from PMC6691116.

Chains of the proteins cited; added tags and fusions are not shown.
UniProt Q00987: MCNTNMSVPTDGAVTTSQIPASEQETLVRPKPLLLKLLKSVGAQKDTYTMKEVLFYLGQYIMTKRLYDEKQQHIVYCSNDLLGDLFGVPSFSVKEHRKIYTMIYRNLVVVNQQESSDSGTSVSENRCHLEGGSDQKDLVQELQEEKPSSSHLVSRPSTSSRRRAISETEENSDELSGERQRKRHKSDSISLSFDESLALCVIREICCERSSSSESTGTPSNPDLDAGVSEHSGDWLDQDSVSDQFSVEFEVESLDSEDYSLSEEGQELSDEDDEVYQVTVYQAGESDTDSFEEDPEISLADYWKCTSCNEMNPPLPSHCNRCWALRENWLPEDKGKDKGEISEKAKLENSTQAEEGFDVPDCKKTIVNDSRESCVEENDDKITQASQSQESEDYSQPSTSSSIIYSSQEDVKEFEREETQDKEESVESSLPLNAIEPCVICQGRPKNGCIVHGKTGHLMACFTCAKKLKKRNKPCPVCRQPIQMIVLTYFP
UniProt P06748: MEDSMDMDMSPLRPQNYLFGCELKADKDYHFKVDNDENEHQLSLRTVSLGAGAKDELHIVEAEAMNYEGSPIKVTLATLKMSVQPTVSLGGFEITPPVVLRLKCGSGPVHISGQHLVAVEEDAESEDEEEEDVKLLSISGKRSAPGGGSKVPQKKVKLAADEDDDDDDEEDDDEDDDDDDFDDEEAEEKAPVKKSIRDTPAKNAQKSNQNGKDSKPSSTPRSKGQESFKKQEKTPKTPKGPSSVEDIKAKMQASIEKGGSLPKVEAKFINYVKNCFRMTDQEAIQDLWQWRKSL

For one experiment, the target named is GST-HDM2 (human) (UniProt Q00987). The experiment can be described thus: pull-down.
The target of experiment [1] is HDM2 (human (endogenous in L02)) (UniProt Q00987). Kind of experiment: co-IP.

Results are given in words; binding and its absence hold for the method and conditions named. Binding seen in cells or lysates may run through a third protein. Some binding calls cover weakened binding; strength is not graded here.

Consider His-NPM1 (from UniProt P06748 1-294), for which the binding result with GST-HDM2 (human) is listed as “binds”. For the substance NPM1 (from UniProt P06748 1-294), the binding result in experiment [1] was “binds”.
